# Results published in PubChem BioAssay AID216 (DTP/NCI, 2004).
# The list does not hold the whole screen: it is rich in T/C values a quarter to a half above the control, in often repeated tests (any T/C) and in doses without a T/C. Other doses and runs of a compound stand elsewhere. T/C: endpoint of the treated group in % of that of the vehicle group. Some entries give survivors of the animals treated and no T/C: the source files T/C as zero there, which appears to mark a toxic dose or a test without result, not a measured value. Some survivor counts are full or nearly so, which does not show that the dose was tolerated: survival well below the control is almost never listed, so the zero probably covers shortened survival too. Counts of survivors are from the toxicity check (mostly the fifth day) where no day follows; animals may have died later. Schedules are NCI's codes, read here as Q, the interval in days (D) or hours (H), X, the number of doses. Some entries hold several experiments; their values stand side by side, smallest first. Some schedules carry Z or #; the key to these is not given. Where survival is the endpoint, this PubChem deposit counts one and a half times the control or more as active, and values a quarter to a half above the control carry no call in these data; other NCI protocols may use other cut-offs. Signs of the kind (2×) give the number of equal values in this list. Some T/C values carry the count of animals alive at the toxicity check (mostly the fifth day); where none is given, no animal had died by that day.
# Test system: BDF1 mice, P288 leukemia ip, survival T/C
# Assay: NCI In Vivo Anticancer Drug Screen. Data for tumor model P288 Lymphocytic Leukemia (intraperitoneal) in B6D2F1 (BDF1) mice
# Settings: T/C endpoint: survival time, mean or median, higher T/C = longer survival
# Description: The antitumor activity of compounds was measured in mice bearing transplantable tumors. Survival or tumor size were measured and the results are expressed as the measurement made in the treated group (T) divided by the measurement made in the vehicle treated control group (C). The tumor model used in this assay is P288 Lymphocytic Leukemia (intraperitoneal) in B6D2F1 (BDF1) mice
# [1] = dose: 62.5 mg/kg/injection, schedule: Q01DX010 (ip), vehicle: saline
# [2] = dose: 125.0 mg/kg/injection, schedule: Q01DX010 (ip), vehicle: saline
# [3] = dose: 125.0 mg/kg/injection, schedule: Q01DX Z (ip), vehicle: carboxymethylcellulose (CMC)
# [4] = dose: 250.0 mg/kg/injection, schedule: Q01DX Z (ip), vehicle: carboxymethylcellulose (CMC)
# [5] = dose: 500.0 mg/kg/injection, schedule: Q01DX Z (ip), vehicle: carboxymethylcellulose (CMC)
# [6] = dose: 1000.0 mg/kg/injection, schedule: Q01DX Z (ip), vehicle: carboxymethylcellulose (CMC)
# [7] = dose: 250.0 mg/kg/injection, schedule: Q01DX010 (ip), vehicle: saline
# [8] = dose: 500.0 mg/kg/injection, schedule: Q01DX010 (ip), vehicle: saline
# [9] = dose: 32.0 mg/kg/injection, schedule: Q01DX010 (ip), vehicle: saline
# [10] = dose: 15.6 mg/kg/injection, schedule: Q01DX Z (ip), vehicle: carboxymethylcellulose (CMC)
# [11] = dose: 31.2 mg/kg/injection, schedule: Q01DX Z (ip), vehicle: carboxymethylcellulose (CMC)
# [12] = dose: 62.5 mg/kg/injection, schedule: Q01DX Z (ip), vehicle: carboxymethylcellulose (CMC)
# [13] = dose: 15.6 mg/kg/injection, schedule: Q01DX010 (ip), vehicle: saline
smiles,measurement,setting,value
O=c1cnn(C2OC(CO)C(O)C2O)c(=O)[nH]1 (stereo not drawn),T/C,"dose: 400.0 mg/kg/injection, schedule: Q01DX010 (ip), vehicle: saline",127 % of control
same,T/C,"dose: 800.0 mg/kg/injection, schedule: Q01DX010 (ip), vehicle: saline",125 % of control [5 of 6 alive]
O=CCC(O)C(O)C(O)CO (stereo not drawn),T/C,"dose: 31.0 mg/kg/injection, schedule: Q01DX Z (ip), vehicle: carboxymethylcellulose (CMC)",126 % of control
same,survivor count,[1],6 of 6
same,survivor count,[2],6 of 6
same,survivor count,[3],6 of 6
same,survivor count,[4],6 of 6
same,survivor count,[5],6 of 6
same,survivor count,[6],6 of 6
CC(=O)N(C)C,survivor count,"dose: 62.0 mg/kg/injection, schedule: Q01DX Z (ip), vehicle: saline",6 of 6
same,T/C,[1],105 % of control
same,survivor count,[1],6 of 6
same,T/C,[2],88 % of control
same,survivor count,[2],5 of 6 and 6 of 6
same,T/C,[7],88 and 94 % of control (2×)
same,survivor count,[7],6 of 6
same,T/C,[8],"90, 94, 100, 105 % of control"
same,survivor count,"dose: 1000.0 mg/kg/injection, schedule: Q01DX Z (ip), vehicle: saline",6 of 6
CN1CC[C@]23c4c5ccc(O)c4O[C@H]2C(=O)CC[C@H]3[C@H]1C5,survivor count,"dose: 4.0 mg/kg/injection, schedule: Q01DX010 (ip), vehicle: saline",6 of 6
same,survivor count,"dose: 8.0 mg/kg/injection, schedule: Q01DX010 (ip), vehicle: saline",6 of 6
same,survivor count,"dose: 16.0 mg/kg/injection, schedule: Q01DX010 (ip), vehicle: saline",6 of 6
same,survivor count,[9],6 of 6
N[C@@H](Cc1ccc(N(CCCl)CCCl)cc1)C(=O)O,T/C,"dose: 0.31 mg/kg/injection, schedule: Q01DX Z (ip), vehicle: saline",125 % of control
same,survivor count,"dose: 20.0 mg/kg/injection, schedule: Q01DX Z (ip), vehicle: saline",6 of 6
c1ccc(CNc2ncnc3[nH]ncc23)cc1,survivor count,[10],6 of 6
same,survivor count,[11],5 of 6
same,T/C,[9],135 % of control
same,survivor count,[12],0 of 6
same,T/C,"dose: 64.0 mg/kg/injection, schedule: Q01DX010 (ip), vehicle: saline",125 and 135 % of control
Oc1cc(CN(CCCl)CCCl)c(O)cc1CN(CCCl)CCCl,survivor count,"dose: 2.5 mg/kg/injection, schedule: Q01DX010 (ip), vehicle: saline",3 of 6
same,survivor count,"dose: 7.5 mg/kg/injection, schedule: Q01DX Z (sc), vehicle: steroid suspending solution",5 of 6
same,survivor count,"dose: 15.0 mg/kg/injection, schedule: Q01DX Z (sc), vehicle: steroid suspending solution",6 of 6
CSCS(=O)C[C@H](CO)NC(=O)/C=C/c1c(C)[nH]c(=O)[nH]c1=O (stereo partly drawn),survivor count,"dose: 2.0 mg/kg/injection, schedule: Q01DX Z (ip), vehicle: saline",2 of 6
C[C@@H]1C[C@@H]([C@H](O)CC2CC(=O)NC(=O)C2)C(=O)[C@@H](C)C1,survivor count,"dose: 5.0 mg/kg/injection, schedule: Q01DX010 (ip), vehicle: saline",6 of 6
same,survivor count,"dose: 50.0 mg/kg/injection, schedule: Q01DX Z (ip), vehicle: water",4 of 6
same,survivor count,"dose: 100.0 mg/kg/injection, schedule: Q01DX Z (ip), vehicle: water",0 of 6
C1CN1c1nc(N2CC2)nc(N2CC2)n1,survivor count,"dose: 0.13 mg/kg/injection, schedule: Q01DX010 (ip), vehicle: saline",6 of 6
same,survivor count,"dose: 1.0 mg/kg/injection, schedule: Q01DX010 (ip), vehicle: saline",5 of 6
CCCCNc1ncnc2c1cnn2C,survivor count,"dose: 1.95 mg/kg/injection, schedule: Q01DX Z (ip), vehicle: carboxymethylcellulose (CMC)",6 of 6
same,survivor count,"dose: 3.9 mg/kg/injection, schedule: Q01DX Z (ip), vehicle: carboxymethylcellulose (CMC)",6 of 6
same,survivor count,"dose: 7.8 mg/kg/injection, schedule: Q01DX Z (ip), vehicle: carboxymethylcellulose (CMC)",6 of 6
same,T/C,[13],"88, 90, 100 % of control"
same,survivor count,[13],6 of 6
same,survivor count,[10],6 of 6
same,survivor count,[11],6 of 6
same,T/C,"dose: 31.3 mg/kg/injection, schedule: Q01DX010 (ip), vehicle: saline","94, 100 (2×), 105 % of control"
same,T/C,[1],"95, 100, 105 % of control (2×)"
same,survivor count,[12],6 of 6
same,T/C,[2],"88 [5 of 6 alive], 90 [5 of 6 alive], 94 % of control [5 of 6 alive] (2×)"
same,survivor count,[3],4 of 6
COc1cc(-c2ccc(Nc3ccccc3C(=O)O)c(OC)c2)ccc1Nc1ccccc1C(=O)O,T/C,"dose: 50.0 mg/kg/injection, schedule: Q01DX010 (ip), vehicle: saline",133 % of control
O=c1[nH]c(=O)n(C2CC(O)C(CO)O2)cc1Br (stereo not drawn),survivor count,"dose: 16.0 mg/kg/injection, schedule: Q01DX Z (ip), vehicle: carboxymethylcellulose (CMC)",5 of 6
same,survivor count,[12],6 of 6
same,survivor count,[3],6 of 6
same,survivor count,[4],6 of 6
same,survivor count,[5],6 of 6
Cn1cnc([N+](=O)[O-])c1Sc1nc(N)nc2nc[nH]c12,survivor count,"dose: 1.0 mg/kg/injection, schedule: Q01DX Z (ip), vehicle: carboxymethylcellulose (CMC)",6 of 6
same,survivor count,"dose: 2.0 mg/kg/injection, schedule: Q01DX Z (ip), vehicle: carboxymethylcellulose (CMC)",6 of 6
same,survivor count,"dose: 4.0 mg/kg/injection, schedule: Q01DX Z (ip), vehicle: carboxymethylcellulose (CMC)",6 of 6
same,survivor count,"dose: 8.0 mg/kg/injection, schedule: Q01DX Z (ip), vehicle: carboxymethylcellulose (CMC)",6 of 6
O=C(Nc1ccc(C2=NCCN2)cc1)c1ccc(C(=O)Nc2ccc(C3=NCCN3)cc2)cc1,T/C,"dose: 4.0 mg/kg/injection, schedule: Q01DX010 (ip), vehicle: other",133 and 140 % of control
same,T/C,"dose: 16.0 mg/kg/injection, schedule: Q01DX010 (ip), vehicle: other",136 % of control [5 of 6 alive]
same,T/C,"dose: 32.0 mg/kg/injection, schedule: Q01DX010 (ip), vehicle: other",132 % of control
same,T/C,"dose: 100.0 mg/kg/injection, schedule: Q01DX Z (ip), vehicle: carboxymethylcellulose (CMC)",133 % of control
same,survivor count,"dose: 400.0 mg/kg/injection, schedule: Q01DX Z (ip), vehicle: carboxymethylcellulose (CMC)",2 of 6
Nc1ncnc2c1ccn2C1OC(CO)C(O)C1O (stereo not drawn),survivor count,"dose: 1.25 mg/kg/injection, schedule: Q01DX Z (ip), vehicle: carboxymethylcellulose (CMC)",5 of 6
same,survivor count,"dose: 2.5 mg/kg/injection, schedule: Q01DX Z (ip), vehicle: carboxymethylcellulose (CMC)",6 of 6
same,survivor count,"dose: 5.0 mg/kg/injection, schedule: Q01DX Z (ip), vehicle: carboxymethylcellulose (CMC)",2 of 6
O=c1[nH]c(=O)n(C2CC(O)C(CO)O2)cc1I (stereo not drawn),T/C,[2],127 % of control
same,T/C,[3],129 % of control
same,survivor count,[3],6 of 6
same,T/C,[7],133 % of control
same,survivor count,[4],6 of 6
same,T/C,[8],127 % of control
same,survivor count,[5],6 of 6
same,survivor count,[6],5 of 6
CCN(CC)c1ccc2cc3ccc(=[N+](CC)CC)cc-3oc2c1,survivor count,"dose: 10.0 mg/kg/injection, schedule: Q01DX Z (ip), vehicle: carboxymethylcellulose (CMC)",4 of 6
same,survivor count,"dose: 20.0 mg/kg/injection, schedule: Q01DX Z (ip), vehicle: carboxymethylcellulose (CMC)",0 of 6
